In series [1] the target is BRD4 N-terminal tandem bromodomain fragment (BD1-BD2) (Homo sapiens) (UniProt O60885). The experiment in a line: SPR. To be noted: 4 eq PDS; SPR: 10 mM HEPES pH 7.4, 150 mM NaCl, 50 uM EDTA, 0.005% P20, 24 C; recombinant protein; residues 49-460.
Series [2] has the same target. The experiment in a line: MST. To be noted: two MST values given for peptide and G4 in order; MST: PBS, 0.05% Tween-20, 22 C; recombinant protein; residues 49-460; folded or branched DNA.

pKd: −log10 of the molar value. For some assays here: No signal at the amounts used counts as a negative. For some assays here: For at least one entry, the source does not settle the construct or the ends of the probe.

In publication PMC12311796 one finds binding result and Kd data, which are given here for two sequences.

In the case of “ATCACACTTGGCAGGGAGGGAGGGAGGGATGCAGCTGATCA (double strand) [dsG4]”, the binding result in series [1] is “no binding”. With GGGAGGGAGGGAGGG [G4 (SE G4)], in series [2], the negative-log Kd (pKd) (as a rule, the negative decadic logarithm of the Kd, by convention in mol/L) is 5.00.
